# Experimental data reported in PubChem BioAssay AID504648 (National Center for Advancing Translational Sciences (NCATS), 2011).
# The campaign covered roughly 390,000 compounds. About 610 (0.16%) were called active. This list was built around the results that the source calls inconclusive (neither active nor inactive); the mix of calls is not that of the screen. The call rests on the fitted dose curve; in most records, active means well fitted inhibition curve with a large enough effect; inconclusive means small, poorly fitted or top-dose-only effect, or effect the other way, or another doubt; inactive means no such curve, though single readings can be large or run the other way. A potency beside an inconclusive call is a rough fit, not a confirmed value.
# Assay: Nrf2 qHTS screen for inhibitors: counterscreen for cytotoxicity
# Details: A549 ARE-Fluc cells, CellTiter-Fluor viability, 18-24 h; series mostly up to 46 µM; activity change, negative = cytotoxicity: at the top concentration
# Description: NIH Molecular Libraries Probe Production Network [MLPCN]
# NIH Chemical Genomics Center [NCGC]
# Assay Provider: Shyam Biswal, Johns Hopkins University
# Nrf2 is a transcription factor that maintains cellular redox homoestasis and protects cells from xenobiotics. Nrf2 binds to the antioxidant response element (ARE) to induce gene expression of a broad spectrum of genes that encode for antioxidants. […] Finding a small molecule that act as an inhibitor of Nrf2 function would represent a novel therapeutic target that could lead to improvement in survival of patients undergoing chemo- and/or radio- therapy.
# So here we implemented a counterscreen to weed out the cytotoxic compounds.
# 1. Shibata, T., et al., Genetic Alteration of Keap1 Confers Constitutive Nrf2 Activation and Resistance to Chemotherapy in Gallbladder Cancer. Gastroenterology, 2008.
# 2. Sjoblom, T., et al., The consensus coding sequences of human breast and colorectal cancers. Science, 2006. 314(5797): p. 268-74.
# NCGC Assay Protocol Summary:
# A concentration-response assay was performed with A549 ARE_Fluc cells which are suspended in 5% FBS OPTI-MEM. Five uL were dispensed into 1536-well white TC-treated plate using the Kalypsys dispenser to achieve a density of 5000 cells/well in all columns except column 1. The plate is incubated at 37deg C at 5% CO2 for 2 hours before 23 nL of compounds are added with the Kalypsys pin tool equipped with a 1,536-pin array containing 10-nL slotted pins (FP1S10, 0.457-mm diameter, 50.8 mm long; V&P Scientific). The control compounds Budesonide and Staurosporine are both added at a concentration of 2mM and Budesonide is also added as a 1:10 titration, starting at 200uM, to achieve dose-response. After an 18-24 hour incubation at 37deg C at 5% CO2, 5ul of medium is added to column 1. Afterwards 1ul of 5x of CellTiter-Fluor (Promega) is added to every well. The plate is then incubated at 37deg C at 5% CO2 for 30 minutes before they are read on the ViewLux (Perkin Elmer) for a fluorescent read Ex=405(10)/Em=525(10) for a 3 second exposure, 2x binning, and high gain. Then 3 uL of 3x BugLite is dispensed into all wells and the plate is incubated at ambient room temperature for 15 minutes. Afterwards another ViewLux read is performed using the clear filter to get a luminescent read with the settings of 40 second exposure, 2x binning, and high gain. Cytotoxicity is assessed through the first fluorescent read and then biochemical activity against Nrf2 is measured in the luminescent read.
# On the % scale 0 is the no-effect control and ±100 the full control effect; potency means the concentration at half of the fitted maximal effect.
Structure (SMILES),Potency,"activity change, negative = cytotoxicity"
CCCCCn1c(=O)c(C(=O)Nc2cnccn2)c(O)c2ccccc21,"inconclusive: 5.8 µM [falling, full curve]",–
CCOc1ccc(CN(CCc2ccc3c(c2)OCO3)Cc2cc(OC)ccc2O)cc1,–,inactive: 2.67%
C[n+]1c2cc(N)ccc2cc2ccc(N)cc21,"inconclusive: 20.6 µM [activator, partial curve]",–
CN1OCC2Cn3c(nc4ccccc43)C21 (stereo not drawn),–,inactive: 1.82%
O=c1[nH]c(=O)n(C2CCCCC2)c(O)c1/C=N/N1CCCCC1c1cccnc1 (stereo not drawn),–,inactive: -1.32%
CCn1nc(/C=C/c2ccccc2)nc2c(=O)n(C)c(=O)nc1-2,active: 5.8 µM,–
CCc1ccc(CNCCc2ccccc2F)cc1,"inconclusive: 8.2 µM [falling, partial curve]",–
CCCCn1c(O)c(C(CC)=Nc2ccc(OCC)cc2)c(=O)[nH]c1=O,–,inactive: 1.08%
CCOc1ccc(N2C(=O)/C(=C/c3ccco3)C(=O)NC2=S)cc1,"inconclusive: 18.4 µM [falling, partial curve]",–
OCC1CN1C1CCCCC1 (stereo not drawn),–,inactive: -5.39%
Cc1cc(OCC(=O)N2CCN(CCc3ccncc3)CC2)ccc1Cl,"inconclusive: 32.6 µM [activator, partial curve, poor fit]",–
O=P1(Oc2ccccc2)OCCCS1 (stereo not drawn),–,inactive: 0.48%
c1ccc(CCc2ccc3n2Cc2cnnn2-c2ccccc2-3)cc1,"inconclusive: 20.6 µM [activator, single point]",–
CCOC(=O)c1c(-n2c(C)cc(C=C3C(=O)NC(=S)NC3=O)c2C)sc2c1CCCC2,"inconclusive: 20.6 µM [falling, single point]",–
COc1ccccc1-n1c(/C=C/c2ccccn2)nc2ccccc2c1=O,"inconclusive: 23.1 µM [falling, single point]",–
CC(=NC1CCN(Cc2ccccc2)CC1)c1c(O)[nH]c(=O)[nH]c1=O,"inconclusive: 4.61 µM [activator, single point]",–
O=c1cc(-c2ccc(Cl)cc2)oc(=O)[nH]1,"inconclusive: 18.4 µM [activator, partial curve, poor fit]",–
Nc1nonc1OCCCCOc1nonc1N,–,inactive: -1.15%
COc1ccc2c(c1)c(CCN)c(C)n2Cc1ccccc1,"inconclusive: 18.4 µM [falling, partial curve, poor fit]",–
COc1ccc(NC(c2ccccc2)P(=O)(Oc2ccccc2)Oc2ccccc2)cc1 (stereo not drawn),–,inactive: -2.27%
O=C1NC(=S)SC1=Cc1ccc(N(CCCl)CCCl)cc1,"inconclusive: 23.1 µM [falling, single point]",–
O=C(/C=C/c1ccccc1)c1c(O)n(CCc2ccccc2)c(=O)[nH]c1=O,"inconclusive: 32.6 µM [falling, partial curve, poor fit]",–

# Another view of three compounds above.
Structure (SMILES) | Potency | activity change, negative = cytotoxicity
Cc1cc(OCC(=O)N2CCN(CCc3ccncc3)CC2)ccc1Cl | inconclusive: 32.6 µM [activator, partial curve, poor fit] | –
O=P1(Oc2ccccc2)OCCCS1 (stereo not drawn) | – | inactive: 0.48%
c1ccc(CCc2ccc3n2Cc2cnnn2-c2ccccc2-3)cc1 | inconclusive: 20.6 µM [activator, single point] | –

# Additional compounds:

Structure (SMILES),Potency,"activity change, negative = cytotoxicity"
Cc1ccsc1C(=O)C1CCCN(Cc2cnc(N3CCOCC3)s2)C1 (stereo not drawn),"inconclusive: 23.1 µM [falling, partial curve, poor fit]",–
C=CCn1c(O)c(N=Nc2c(C)n(C)n(-c3ccccc3)c2=O)c(=O)[nH]c1=S,"inconclusive: 14.6 µM [falling, partial curve]",–
O=P1(Oc2ccccc2)CC=CC(COC(c2ccccc2)(c2ccccc2)c2ccccc2)O1 (stereo not drawn),"inconclusive: 29.1 µM [falling, single point]",–
Cc1cc(/C=C2\C(=O)NC(=O)N(c3cccc(Br)c3)C2=O)c(C)n1C,–,inactive: -0.241%
COC(=O)C1=C(c2ccc(F)cc2OCc2ccccc2)C[C@@H]2CC[C@H]1N2C(=O)NC1CCN(Cc2ccccc2)CC1,"inconclusive: 29.1 µM [falling, single point]",–
CCN[C@@H](C)Cc1cccc(C(F)(F)F)c1,–,inactive: -8.25%
O=c1onc(-c2cccnc2)n1-c1ccccc1F,"inconclusive: 32.6 µM [falling, partial curve, poor fit]",–
O=c1[nH]c(=S)[nH]c(O)c1N=Nc1ccc2c(c1)OCCO2,"inconclusive: 16.4 µM [falling, partial curve]",–
C=C1C(=O)[C@@]23C[C@H]4[C@@H]5[C@@]6(C)CCC[C@@]57[C@@H]2[C@@H](O)[C@@H]1C[C@H]3[C@H]7N4C6,active: 13 µM,–
CCc1cccc(NC(=O)CN2C(=O)CN=C(c3ccccc3F)c3cc(Cl)ccc32)c1,"inconclusive: 29.1 µM [falling, single point]",–
CC(=O)OC1CC(OC2C(O)CC(OC3C(O)CC(OC4CCC5(C)C(CCC6C5CCC5(C)C(C7=CC(=O)OC7)CCC65O)C4)OC3C)OC2C)OC(C)C1OC1OC(CO)C(O)C(O)C1O (stereo not drawn),"inconclusive: 0.92 µM [falling, full curve, poor fit]",–
Cc1cnn(C2CCN(C)CC2)c1N,"inconclusive: 1.03 µM [falling, single point]",–
COc1ccc(C(C)=O)cc1CN1CC=C(c2ccccc2)CC1,"inconclusive: 23.1 µM [falling, partial curve, poor fit]",–
Nc1c(C(=O)NCCCc2ccccc2)c2nc3ccccc3nc2n1Cc1cccs1,"inconclusive: 29.1 µM [falling, single point]",–
Cc1c(NS(=O)(=O)c2ccccc2)ccc([N+](=O)[O-])c1Cl,"inconclusive: 16.4 µM [falling, partial curve]",–
Cc1cc(C)cc(N2C(=O)NC(=O)/C(=C\c3cccn3-c3ccc(Cl)cc3)C2=O)c1,"inconclusive: 29.1 µM [falling, single point]",–
CN(C)C1(CNC(=O)Nc2ccc(Cl)c(Cl)c2)CCCCC1,–,inactive: -18.7%
COC1/C=C/C=C(\C)Cc2cc(O)c(Cl)c(c2)N(C)C(=O)CC(OC(=O)C(C)C)C2(C)OC2C(C)C2CC1(O)NC(=O)O2 (stereo not drawn),"inconclusive: 1.84 µM [falling, partial curve, poor fit]",–
Clc1ccc(CNCCc2ccc3c(c2)OCO3)cc1,–,inactive: 15%
CC(=NNC(=S)N1CC2CCC(CC2)C1)c1nccs1,"inconclusive: 5.8 µM [falling, partial curve]",–
Cn1c(O)c(C(=NCCN2CCCCC2)c2ccccc2Cl)c(=O)n(C)c1=O,"inconclusive: 5.17 µM [activator, partial curve, poor fit]",–
